The list is a part of this screen's results and no random one: it gathers tests that were run many times, whatever their T/C, doses with no T/C, and many T/C values between a quarter and a half above the control. Further doses and runs are listed elsewhere. T/C is the treated group as % of the vehicle group. Some doses have a count of surviving animals in place of a T/C: the source files T/C as zero there, which appears to mark a toxic dose or a test without result, not a measured value. Some survivor counts are full or nearly so, which does not show that the dose was tolerated: survival well below the control is almost never listed, so the zero probably covers shortened survival too. Survivors were counted at the toxicity check, usually on the fifth day, unless a day is given; later deaths do not show. Schedules are NCI's codes, taken here to give the interval after Q, in days (D) or hours (H), and the number of doses after X. Some entries were tested several times; the results are listed from low to high. For survival time, this PubChem deposit counts one and a half times the control or more as active, and values a quarter to a half above the control carry no call in these data; other NCI protocols may use other cut-offs. Some T/C values are followed by the survivors on the day toxicity was checked, most often the fifth; without a count, all were alive then.
Tested on: P388 leukemia ip, CD2F1 mice, survival T/C
Assay: NCI In Vivo Anticancer Drug Screen. Data for tumor model P388 Leukemia (intraperitoneal) in CD2F1 (CDF1) mice
Conditions: T/C endpoint: median survival time, higher T/C = longer survival
[1] = dose: 25.0 mg/kg/injection, schedule: Q04DX003 (ip), vehicle: saline with Tween-80
[2] = dose: 200.0 mg/kg/injection, schedule: Q01DX009 (ip), vehicle: saline with Tween-80
[3] = dose: 240.0 mg/kg/injection, schedule: Q01DX005 (ip), vehicle: saline with Tween-80
[4] = dose: 100.0 mg/kg/injection, schedule: Q01DX005 (ip), vehicle: Klucel (hydroxypropylcellulose) (HPC)
[5] = dose: 200.0 mg/kg/injection, schedule: Q01DX005 (ip), vehicle: Klucel (hydroxypropylcellulose) (HPC)
[6] = dose: 200.0 mg/kg/injection, schedule: Q01DX009 (ip), vehicle: Klucel (hydroxypropylcellulose) (HPC)
[7] = dose: 25.0 mg/kg/injection, schedule: Q01DX005 (ip), vehicle: Klucel (hydroxypropylcellulose) (HPC)
[8] = dose: 50.0 mg/kg/injection, schedule: Q01DX005 (ip), vehicle: Klucel (hydroxypropylcellulose) (HPC)

CSC(SC)=C1C(=O)NC(Cc2ccccc2)C1=O (centres undefined)
survivor count (dose: 50.0 mg/kg/injection, schedule: Q01DX005 (ip), vehicle: saline with Tween-80): 3 of 6
survivor count (dose: 100.0 mg/kg/injection, schedule: Q01DX005 (ip), vehicle: saline with Tween-80): 0 of 6
survivor count (dose: 200.0 mg/kg/injection, schedule: Q01DX005 (ip), vehicle: saline with Tween-80): 0 of 6

CC(c1ccccc1)C1CCN(C)CC1 (centres undefined)
survivor count (dose: 50.0 mg/kg/injection, schedule: Q04DX002 (ip), vehicle: saline): 6 of 6
survivor count (dose: 100.0 mg/kg/injection, schedule: Q04DX002 (ip), vehicle: saline): 1 of 6
survivor count (dose: 200.0 mg/kg/injection, schedule: Q04DX002 (ip), vehicle: saline): 0 of 6
survivor count (dose: 400.0 mg/kg/injection, schedule: Q04DX002 (ip), vehicle: saline): 0 of 6

CC(O)CCC(=O)c1ccoc1 (centres undefined)
survivor count (dose: 30.0 mg/kg/injection, schedule: Q01DX005 (ip), vehicle: saline): 3 of 6
survivor count (dose: 60.0 mg/kg/injection, schedule: Q01DX005 (ip), vehicle: saline): 0 of 6
survivor count (dose: 120.0 mg/kg/injection, schedule: Q01DX005 (ip), vehicle: saline): 0 of 6
survivor count (dose: 240.0 mg/kg/injection, schedule: Q01DX005 (ip), vehicle: saline): 0 of 6

c1cc[c]([Sn]([O][Sn]([c]2ccccc2)([c]2ccccc2)[c]2ccccc2)([c]2ccccc2)[c]2ccccc2)cc1
survivor count (dose: 1.56 mg/kg/injection, schedule: Q04DX003 (ip), vehicle: Klucel (hydroxypropylcellulose) (HPC)): 6 of 6
survivor count (dose: 6.25 mg/kg/injection, schedule: Q04DX003 (ip), vehicle: Klucel (hydroxypropylcellulose) (HPC)): 6 of 6
survivor count (dose: 12.5 mg/kg/injection, schedule: Q04DX003 (ip), vehicle: saline with Tween-80): 0 of 6
survivor count [1]: 0 of 6
survivor count (dose: 100.0 mg/kg/injection, schedule: Q04DX003 (ip), vehicle: saline with Tween-80): 0 of 6
survivor count (dose: 200.0 mg/kg/injection, schedule: Q04DX003 (ip), vehicle: saline with Tween-80): 0 of 6
survivor count (dose: 400.0 mg/kg/injection, schedule: Q04DX003 (ip), vehicle: saline with Tween-80): 0 of 6

CCOC(=O)/C=C(\C)NC1CC(OC2CC(O)(C(=O)CO)Cc3c(O)c4c(c(O)c32)C(=O)c2c(OC)cccc2C4=O)OC(C)C1O (centres undefined)
T/C [1]: 126 % of control

CN(C)S(=O)(=O)c1ccccc1N=C=S
survivor count [2]: 2 of 6

O=S(=O)(Nc1ccc(Cl)cc1C(F)(F)F)c1ccc(F)cc1
survivor count [3]: 2 of 6

CSc1nc(COC(=O)NC(C)C)c(COC(=O)NC(C)C)n1C
T/C (dose: 25.0 mg/kg/injection, schedule: Q01DX005 (ip), vehicle: Klucel + Tween-80): 125 % of control
T/C (dose: 50.0 mg/kg/injection, schedule: Q01DX005 (ip), vehicle: Klucel + Tween-80): 130 and 134 % of control
survivor count (dose: 400.0 mg/kg/injection, schedule: Q01DX005 (ip), vehicle: Klucel + Tween-80): 6 of 6

O=C(N=Nc1c(Cl)c(O)c2ccccc2c1O)C(=O)Nc1cccc(C(F)(F)F)c1
survivor count [4]: 4 of 6
survivor count [5]: 0 of 6

OCCSc1c(Cl)c(Cl)c(Cl)c(Cl)c1Cl
survivor count (dose: 50.0 mg/kg/injection, schedule: Q01DX009 (ip), vehicle: saline with Tween-80): 6 of 6

O=C(O)/C=N/NS(=O)(=O)Cc1ccccc1
T/C (dose: 12.5 mg/kg/injection, schedule: Q01DX009 (ip), vehicle: other): 127 and 139 % of control
T/C (dose: 25.0 mg/kg/injection, schedule: Q01DX009 (ip), vehicle: other): 128 and 129 % of control
T/C (dose: 50.0 mg/kg/injection, schedule: Q01DX009 (ip), vehicle: other): 142 and 146 % of control
T/C (dose: 100.0 mg/kg/injection, schedule: Q01DX009 (ip), vehicle: other): 147 % of control [5 of 6 alive]
survivor count (dose: 400.0 mg/kg/injection, schedule: Q01DX009 (ip), vehicle: other): 5 of 6

C[Si](C)(C[P+](=O)[O][Sn]([CH3])([CH3])[O][P+](=O)C[Si](C)(C)c1ccccc1)c1ccccc1 (centres undefined)
survivor count (dose: 15.0 mg/kg/injection, schedule: Q01DX005 (ip), vehicle: saline with Tween-80): 0 of 6
survivor count (dose: 60.0 mg/kg/injection, schedule: Q01DX005 (ip), vehicle: saline with Tween-80): 5 of 6
survivor count (dose: 120.0 mg/kg/injection, schedule: Q01DX005 (ip), vehicle: saline with Tween-80): 0 of 6
survivor count [3]: 0 of 6

Cc1nc(N)nc(N)c1N1CCN(c2ccc(C(=O)NC(CCC(=O)O)C(=O)O)cc2)CC1 (centres undefined)
T/C (dose: 3.12 mg/kg/injection, schedule: Q01DX005 (ip), vehicle: distilled water + Tween-80): 132 % of control
T/C (dose: 3.12 mg/kg/injection, schedule: Q01DX005 (ip), vehicle: water): 125 % of control
T/C (dose: 6.25 mg/kg/injection, schedule: Q01DX005 (ip), vehicle: distilled water + Tween-80): 137 % of control
T/C (dose: 6.25 mg/kg/injection, schedule: Q01DX005 (ip), vehicle: water): 131 % of control
survivor count (dose: 50.0 mg/kg/injection, schedule: Q01DX005 (ip), vehicle: distilled water + Tween-80): 6 of 6

CCC[CH2][Sn]1([CH2]CCC)[O]C2C(OC)OC3COC(c4ccccc4)OC3C2[O]1 (centres undefined)
survivor count (dose: 100.0 mg/kg/injection, schedule: Q04DX003 (ip), vehicle: suspension in saline): 5 of 6
survivor count (dose: 200.0 mg/kg/injection, schedule: Q04DX003 (ip), vehicle: suspension in saline): 1 of 6
survivor count (dose: 400.0 mg/kg/injection, schedule: Q04DX003 (ip), vehicle: suspension in saline): 0 of 6

O=c1cc(CO)[nH]cc1O
survivor count (dose: 180.0 mg/kg/injection, schedule: Q01DX009 (ip), vehicle: saline with Tween-80): 6 of 6
survivor count (dose: 266.0 mg/kg/injection, schedule: Q01DX009 (ip), vehicle: saline with Tween-80): 6 of 6

CN(C)N=Nc1ccc(S(N)(=O)=O)cc1
survivor count [6]: 5 of 5

COc1cc2c(cc1OC)[C@H]1C(=O)c3cc4c(cc3[C@H]1N(C)C2=O)OCO4
survivor count (dose: 100.0 mg/kg/injection, schedule: Q01DX005 (ip), vehicle: distilled water + Tween-80): 5 of 5
survivor count (dose: 200.0 mg/kg/injection, schedule: Q01DX005 (ip), vehicle: distilled water + Tween-80): 5 of 5

CS(=O)(=O)c1nnc(-c2cc[n+]([O-])cc2)s1
survivor count [7]: 2 of 6
survivor count [8]: 0 of 6
survivor count [4]: 0 of 6
survivor count [5]: 0 of 6

CCOC1=CC(=O)/C(=C/O[Si](C)(C)C)CC1
survivor count [2]: 5 of 6

NC(=S)c1cccc(OCCCOc2ccccc2)c1
survivor count [5]: 3 of 5

O=[N+]([O-])c1cnc(Oc2ccccc2[N+](=O)[O-])nc1
survivor count (dose: 50.0 mg/kg/injection, schedule: Q01DX009 (ip), vehicle: Klucel (hydroxypropylcellulose) (HPC)): 6 of 6
survivor count [6]: 3 of 6

CC1=C(O)C(=O)C(c2c(C)cc(C)c(Br)c2C)=C(O)C1=O
T/C [7]: 125 % of control
T/C [8]: 125 % of control
survivor count [4]: 0 of 6

COc1ccc2cc1-c1cc(ccc1O)CCC(O)CC1CCCC(CC(OC(C)=O)CC2)N1 (centres undefined)
survivor count (dose: 120.0 mg/kg/injection, schedule: Q01DX009 (ip), vehicle: Klucel (hydroxypropylcellulose) (HPC)): 0 of 6

Cc1ccnc(NN=O)c1
T/C (dose: 6.25 mg/kg/injection, schedule: Q01DX009 (ip), vehicle: water): 134 % of control
T/C (dose: 12.5 mg/kg/injection, schedule: Q01DX009 (ip), vehicle: water): 137 % of control
survivor count (dose: 25.0 mg/kg/injection, schedule: Q01DX009 (ip), vehicle: water): 5 of 6 and 5 of 5

— PubChem BioAssay AID330 (DTP/NCI, 2004)
